The list shows a part of the results. Shown are side measurements of this screen, not its main read-out; they come without a call. The list favours compounds with an active or inconclusive main result. The note in brackets gives the kind of curve behind each potency; many fits are weak.
Experiment: qHTS Assay to Find Inhibitors of Chronic Active B-Cell Receptor Signaling
Settings: ABC-DLBCL IkBa-CBG/CBR reporter, luminescence ratio (green luciferase fused to IkBa over red control in TMD8 lymphoma cells), 4 h
Outline: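 Concentration-response series (up to 46 uM) were applied to TMD8 dual-reporter cells for 4 h at 37C with doxycycline. Green/red ratio, after filter-overlap correction, defined %Activity; red signal alone was normalised to basal cells and zero luminescence.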

[1] = measured here: CBR red luminescence, cell number
[2] = measured here: IkBa-CBG green luminescence

| SMILES | AC50 [1] | AC50 [2] |
| --- | --- | --- |
| COc1ccc(S(=O)(=O)N2CCc3ccccc3C2)cc1OC | 35.5 µM [falling, single point] | – |
| O=C(O)CCN1C(=O)c2ccccc2C1=O | – | 4.11 µM [rising, partial curve, poor fit] |
| Cc1ccc(S(=O)(=O)Nc2ccccc2C(O)c2ccccc2)cc1 (centres undefined) | 22.4 µM [rising, single point] | – |
| COc1ccccc1C(=O)Nc1nc(-c2cccs2)c(NC(C)=O)s1 | 16.4 µM [rising, single point] | – |
| CCN(CC(=O)Nc1ccccc1OC)C(=O)c1ccc2[nH]c3c(c2c1)CC(C)CC3 (centres undefined) | 20.6 µM [falling, single point] | – |
| CCN1CCS/C1=C/C=C/C1=[N+](CC)CCS1 | – | 29.1 µM [falling, partial curve, poor fit] |
| CCN(C(=O)c1cc2c(C)nc3ccccc3c2o1)c1cc(Cl)ccc1OC | 15.8 µM [falling, single point] | – |
| CC(C)=NOc1nc(N(C)C)nc(N(C)C)n1 | 1.64 µM [rising, single point] | – |
| CC1CN(S(=O)(=O)c2ccc(NC(=O)c3cc(-c4ccccc4O)n[nH]3)cc2)CC(C)O1 (centres undefined) | 12.6 µM [falling, partial curve] | – |
| COc1ccc(-n2c(N)c(C(=O)Nc3c(C)n(C)n(-c4ccccc4)c3=O)c3nc4ccccc4nc32)cc1 | 14.1 µM [rising, single point] | – |
| CCCc1cc(C(=O)Nc2cccnc2)no1 | 11.2 µM [falling, partial curve, poor fit] | – |
| CC(=O)c1ccc(N2CCN(C(=O)C3(S(=O)(=O)c4ccc(Cl)cc4)CC3)CC2)cc1 | 10 µM [falling, partial curve, poor fit] | – |
| Fc1cccc(Cn2cc(C(=S)N3CCOCC3)c3ccccc32)c1 | 22.4 µM [falling, partial curve, poor fit] | – |
| S=C1SCN(Cc2cccnc2)CN1Cc1cccnc1 | 12.6 µM [falling, partial curve, poor fit] | – |
| Cc1cc(C)n(-c2nc3ccccc3c(=O)n2OCc2ccc(F)cc2)n1 | 14.1 µM [falling, single point] | – |
| CN(C)/C=C1\SC(=S)N(c2ccc(Br)cc2)C1=O | 10 µM [rising, partial curve, poor fit] | – |
| O=C(Nc1cccc(F)c1)C1CCN(C(=O)Cc2ccccc2)CC1 | 2.06 µM [falling, partial curve] | – |

| SMILES | AC50 [1] | AC50 [2] |
| --- | --- | --- |
| O=C(Nc1ccccc1)c1nnn(Cc2ccccc2)c1NC(=O)C(F)(F)F | 11.2 µM [falling, partial curve] | – |
| COC(=O)c1cccc(NC(=O)NC(=O)c2ccccc2Cl)c1 | 1.12 µM [falling, full curve] | – |
| COc1ccc(Cl)cc1NC(=O)C/C(C)=N/NC(=O)c1ccccc1[N+](=O)[O-] | 11.2 µM [falling, partial curve, poor fit] | – |
| CCN(CCCNC(=O)c1c(C)cc(=O)oc1C)c1ccccc1 | 29.1 µM [falling, partial curve, poor fit] | – |
| CC1Cc2ccccc2N1C(=O)CSc1nnc(-c2ccccc2)c(-c2ccccc2)n1 (centres undefined) | 35.5 µM [falling, partial curve, poor fit] | – |
| Cc1cccc(NC(=S)NNC(=O)c2ccccc2Br)c1 | 29.1 µM [falling, single point] | – |
| CC(C)OC(=O)CSc1nnc(Cc2ccccc2)n1Cc1ccco1 | 29.1 µM [falling, single point] | – |
| CN1CCN(c2ccccc2NC(=O)c2ccc(-c3cccc(Cl)c3)o2)CC1 | 15.8 µM [falling, partial curve, poor fit] | – |
| Cc1ccc(-c2cc(NC(=O)CCl)n(-c3ccccc3)n2)cc1 | 35.5 µM [falling, single point] | – |
| O=C(CSc1nc(Nc2ccc(F)cc2)c2ccccc2n1)c1ccc(F)cc1 | 2.82 µM [falling, single point] | – |
| O=[N+]([O-])c1cccc(-c2nn(-c3ccccc3)cc2CO)c1 | 2.51 µM [rising, partial curve, poor fit] | – |
| CC(=O)Nc1ccc(NC(=O)COC(=O)[C@@H](NC(=O)c2ccc(F)cc2)C(C)C)cc1 | 35.5 µM [rising, single point] | – |
| CCC(=O)Nc1ccc2c(c1)Cc1cc(NC(=O)CC)ccc1-2 | 20 µM [rising, partial curve, poor fit] | – |
| COc1cccc(C(=O)COc2ccc(NC(=O)c3cccs3)cc2)c1 | 35.5 µM [falling, single point] | – |
| O=C(Nc1ccc(N2CCN(C(=O)c3ccccc3)CC2)cc1)c1ccc2c(c1)OCO2 | 10 µM [falling, partial curve, poor fit] | – |
| O=C(COc1ccc(-c2nnco2)cc1)Nc1ccc(F)c(Cl)c1 | 0.326 µM [rising, full curve, poor fit] | – |
| O=C(NNS(=O)(=O)c1ccccc1)c1csc(-c2cccnc2)n1 | 0.562 µM [falling, full curve, poor fit] | – |

3 compounds drawn at random from those above, as already listed:

| SMILES | AC50 [1] | AC50 [2] |
| --- | --- | --- |
| O=C(COc1ccc(-c2nnco2)cc1)Nc1ccc(F)c(Cl)c1 | 0.326 µM [rising, full curve, poor fit] | – |
| CCN(CCCNC(=O)c1c(C)cc(=O)oc1C)c1ccccc1 | 29.1 µM [falling, partial curve, poor fit] | – |
| O=C(NNS(=O)(=O)c1ccccc1)c1csc(-c2cccnc2)n1 | 0.562 µM [falling, full curve, poor fit] | – |
